Measured values as given in patent publication EP1861101B1, “USE OF AMIDES OF SULFADIMIDINE FOR THE TREATMENT OF INTESTINAL DISEASES IN VETERINARY SCIENCE” (priority 2005, dated 2006).
At least one compound was matched to its structure with a doubt left.

Tested on: digestive syndrome
Assay: prevention and treatment of digestive syndrome (colibacillosis and enterotoxemia) in rabbit farming
Type: in vivo
Details: efficacy remark; rabbits
Text: Given the complex relations existing between colibacillosis and enterotoxemia, they are currently included under the designation "digestive syndrome" for practical purposes. Treatment with an association of systemic drugs with drugs acting exclusively on the intestinal tract is indicated.
In the following table 2 the use of SMAA is compared to the products used most often in rabbit farming for the prevention and treatment of digestive syndrome: Table 2

Compound: CN(C)[C@@H]1C(O)=C(C(N)=O)C(=O)[C@@]2(O)C(O)=C3C(=O)c4c(O)cccc4[C@@](C)(O)[C@H]3C[C@@H]12 [Tetracycline]
- Observations: Efficacious against moderately pathogenic strains.
